Some of the results follow. Small differences around the control level are noise.
These targets were tested with CN[C@@H]1C[C@H]2O[C@@](C)([C@@H]1OC)n1c3ccccc3c3c4c(c5c6ccccc6n2c5c31)C(=O)NC4 [staurosporine] (assay: log2 fold change of tryptic peptide abundance, ligand vs vehicle (limited proteolysis) (log2 ratio); higher = more trypsin-susceptible (destabilized)). Settings: ligand concentration: 20 uM; sample: mouse liver crude lysate; replicate design: treated separately.

The chains behind the UniProt entries cited, without tags or fusion partners. Where a name states a change or a piece, a line headed by the entry shows the natural chain unless it says otherwise.
UniProt E9Q286: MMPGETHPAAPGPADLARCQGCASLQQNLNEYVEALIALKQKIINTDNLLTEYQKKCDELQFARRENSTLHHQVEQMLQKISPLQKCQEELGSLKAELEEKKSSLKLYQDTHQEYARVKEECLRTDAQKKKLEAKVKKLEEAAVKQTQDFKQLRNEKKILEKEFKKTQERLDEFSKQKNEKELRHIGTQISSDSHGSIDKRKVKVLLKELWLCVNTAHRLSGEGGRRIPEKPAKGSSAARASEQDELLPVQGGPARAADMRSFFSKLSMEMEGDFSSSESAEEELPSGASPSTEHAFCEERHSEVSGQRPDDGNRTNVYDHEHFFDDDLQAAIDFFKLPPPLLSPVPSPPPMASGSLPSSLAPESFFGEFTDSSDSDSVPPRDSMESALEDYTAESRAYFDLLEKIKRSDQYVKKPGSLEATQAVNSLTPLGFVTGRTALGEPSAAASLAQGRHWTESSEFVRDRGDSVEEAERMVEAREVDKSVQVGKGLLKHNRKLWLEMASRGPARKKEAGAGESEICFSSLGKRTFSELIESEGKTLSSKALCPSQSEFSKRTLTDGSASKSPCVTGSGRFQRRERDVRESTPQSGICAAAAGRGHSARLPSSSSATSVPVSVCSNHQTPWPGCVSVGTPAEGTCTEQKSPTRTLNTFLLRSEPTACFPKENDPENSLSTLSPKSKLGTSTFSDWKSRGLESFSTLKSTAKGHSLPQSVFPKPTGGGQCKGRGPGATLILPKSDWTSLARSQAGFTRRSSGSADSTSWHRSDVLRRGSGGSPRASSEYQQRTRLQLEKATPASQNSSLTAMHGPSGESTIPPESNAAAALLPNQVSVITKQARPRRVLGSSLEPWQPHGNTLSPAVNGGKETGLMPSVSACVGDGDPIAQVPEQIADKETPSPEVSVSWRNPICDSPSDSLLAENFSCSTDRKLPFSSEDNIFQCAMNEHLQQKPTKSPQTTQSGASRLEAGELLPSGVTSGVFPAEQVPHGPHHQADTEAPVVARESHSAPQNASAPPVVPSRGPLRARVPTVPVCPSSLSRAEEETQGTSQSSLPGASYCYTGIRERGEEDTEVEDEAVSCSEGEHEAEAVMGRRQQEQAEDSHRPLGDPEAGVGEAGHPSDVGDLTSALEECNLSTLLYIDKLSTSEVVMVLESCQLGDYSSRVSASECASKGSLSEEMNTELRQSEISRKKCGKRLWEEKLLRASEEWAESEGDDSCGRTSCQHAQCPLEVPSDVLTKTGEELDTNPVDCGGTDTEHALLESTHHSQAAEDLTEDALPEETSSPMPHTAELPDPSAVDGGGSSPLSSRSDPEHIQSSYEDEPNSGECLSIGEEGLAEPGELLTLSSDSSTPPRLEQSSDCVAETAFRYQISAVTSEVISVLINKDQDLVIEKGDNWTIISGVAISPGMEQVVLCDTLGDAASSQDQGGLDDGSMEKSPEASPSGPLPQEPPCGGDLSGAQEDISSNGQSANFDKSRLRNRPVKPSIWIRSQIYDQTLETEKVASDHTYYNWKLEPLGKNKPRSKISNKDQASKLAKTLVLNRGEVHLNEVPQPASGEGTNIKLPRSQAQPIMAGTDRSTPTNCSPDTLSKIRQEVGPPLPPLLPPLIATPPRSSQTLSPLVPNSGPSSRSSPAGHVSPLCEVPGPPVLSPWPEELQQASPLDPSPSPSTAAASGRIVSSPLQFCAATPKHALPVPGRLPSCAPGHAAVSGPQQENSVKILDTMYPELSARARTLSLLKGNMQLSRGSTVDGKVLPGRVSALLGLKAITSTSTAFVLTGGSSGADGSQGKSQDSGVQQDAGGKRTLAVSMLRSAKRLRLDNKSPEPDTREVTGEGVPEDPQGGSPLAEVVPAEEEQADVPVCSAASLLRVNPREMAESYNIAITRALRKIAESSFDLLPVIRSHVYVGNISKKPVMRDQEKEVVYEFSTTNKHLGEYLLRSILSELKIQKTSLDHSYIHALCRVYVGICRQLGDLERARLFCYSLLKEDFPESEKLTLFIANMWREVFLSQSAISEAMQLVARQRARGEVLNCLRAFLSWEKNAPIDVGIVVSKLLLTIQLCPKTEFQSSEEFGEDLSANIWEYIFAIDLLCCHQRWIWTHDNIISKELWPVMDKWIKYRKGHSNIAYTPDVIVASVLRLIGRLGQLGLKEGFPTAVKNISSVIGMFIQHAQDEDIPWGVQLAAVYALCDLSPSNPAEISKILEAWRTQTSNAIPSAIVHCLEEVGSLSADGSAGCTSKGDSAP
UniProt O35386: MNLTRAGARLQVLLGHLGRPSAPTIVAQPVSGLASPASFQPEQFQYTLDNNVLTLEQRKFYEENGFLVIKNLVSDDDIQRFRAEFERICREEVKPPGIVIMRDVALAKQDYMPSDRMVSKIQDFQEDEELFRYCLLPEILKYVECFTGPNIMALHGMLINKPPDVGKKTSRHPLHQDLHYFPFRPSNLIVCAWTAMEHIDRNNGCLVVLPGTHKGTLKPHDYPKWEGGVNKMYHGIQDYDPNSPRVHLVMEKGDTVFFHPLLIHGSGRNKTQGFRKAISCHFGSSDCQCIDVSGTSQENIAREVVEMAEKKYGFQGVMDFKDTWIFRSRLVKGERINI
UniProt O35375, whole entry: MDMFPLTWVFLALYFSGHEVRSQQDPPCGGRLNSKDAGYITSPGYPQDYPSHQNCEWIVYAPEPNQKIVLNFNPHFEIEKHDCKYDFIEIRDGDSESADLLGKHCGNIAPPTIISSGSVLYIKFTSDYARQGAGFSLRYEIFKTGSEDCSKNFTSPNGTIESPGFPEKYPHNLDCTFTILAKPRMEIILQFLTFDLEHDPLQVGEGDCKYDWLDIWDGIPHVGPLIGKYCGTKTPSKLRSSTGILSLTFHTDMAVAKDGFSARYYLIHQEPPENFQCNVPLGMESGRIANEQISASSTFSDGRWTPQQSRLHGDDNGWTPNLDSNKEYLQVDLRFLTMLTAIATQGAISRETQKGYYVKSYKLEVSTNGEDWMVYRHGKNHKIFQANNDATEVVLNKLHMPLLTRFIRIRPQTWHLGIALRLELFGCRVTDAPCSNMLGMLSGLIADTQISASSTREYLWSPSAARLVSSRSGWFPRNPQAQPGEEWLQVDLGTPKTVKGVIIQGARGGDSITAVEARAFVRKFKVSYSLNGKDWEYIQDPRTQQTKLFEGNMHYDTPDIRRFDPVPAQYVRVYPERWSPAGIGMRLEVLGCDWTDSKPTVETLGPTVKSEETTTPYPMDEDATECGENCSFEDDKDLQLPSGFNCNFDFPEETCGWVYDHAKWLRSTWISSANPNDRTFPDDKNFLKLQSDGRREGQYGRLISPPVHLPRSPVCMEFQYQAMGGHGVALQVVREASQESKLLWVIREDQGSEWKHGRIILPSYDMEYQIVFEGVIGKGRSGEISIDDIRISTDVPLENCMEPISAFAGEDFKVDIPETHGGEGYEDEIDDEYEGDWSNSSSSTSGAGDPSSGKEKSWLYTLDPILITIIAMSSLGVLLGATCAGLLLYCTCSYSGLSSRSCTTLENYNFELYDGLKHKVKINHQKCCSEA
UniProt C0HKD8: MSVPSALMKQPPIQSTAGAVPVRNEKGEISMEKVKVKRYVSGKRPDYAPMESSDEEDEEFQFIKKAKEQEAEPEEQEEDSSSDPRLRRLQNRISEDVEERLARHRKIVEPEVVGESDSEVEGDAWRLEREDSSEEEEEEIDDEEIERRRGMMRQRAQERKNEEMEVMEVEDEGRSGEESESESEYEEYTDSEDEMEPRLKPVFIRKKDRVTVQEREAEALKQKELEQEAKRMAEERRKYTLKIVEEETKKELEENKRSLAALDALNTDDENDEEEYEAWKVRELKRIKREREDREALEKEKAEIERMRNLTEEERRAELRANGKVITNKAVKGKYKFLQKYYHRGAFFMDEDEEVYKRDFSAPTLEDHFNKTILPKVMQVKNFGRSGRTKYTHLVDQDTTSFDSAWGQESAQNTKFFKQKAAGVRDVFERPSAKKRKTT
UniProt O08585: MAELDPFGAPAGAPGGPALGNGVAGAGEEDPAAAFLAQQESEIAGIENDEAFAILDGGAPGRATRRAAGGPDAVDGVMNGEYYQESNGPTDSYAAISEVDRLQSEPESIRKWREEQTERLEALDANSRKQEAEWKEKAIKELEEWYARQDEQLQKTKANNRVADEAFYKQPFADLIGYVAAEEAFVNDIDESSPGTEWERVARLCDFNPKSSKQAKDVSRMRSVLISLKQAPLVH
UniProt O09117: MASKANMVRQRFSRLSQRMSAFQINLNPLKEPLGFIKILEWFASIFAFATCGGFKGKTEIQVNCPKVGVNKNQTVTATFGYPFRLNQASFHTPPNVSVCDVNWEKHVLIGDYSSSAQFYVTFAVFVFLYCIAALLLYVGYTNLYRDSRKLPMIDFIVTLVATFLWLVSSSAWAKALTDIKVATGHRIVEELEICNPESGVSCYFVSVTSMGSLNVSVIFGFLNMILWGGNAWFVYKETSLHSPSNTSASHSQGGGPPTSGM
UniProt O35459: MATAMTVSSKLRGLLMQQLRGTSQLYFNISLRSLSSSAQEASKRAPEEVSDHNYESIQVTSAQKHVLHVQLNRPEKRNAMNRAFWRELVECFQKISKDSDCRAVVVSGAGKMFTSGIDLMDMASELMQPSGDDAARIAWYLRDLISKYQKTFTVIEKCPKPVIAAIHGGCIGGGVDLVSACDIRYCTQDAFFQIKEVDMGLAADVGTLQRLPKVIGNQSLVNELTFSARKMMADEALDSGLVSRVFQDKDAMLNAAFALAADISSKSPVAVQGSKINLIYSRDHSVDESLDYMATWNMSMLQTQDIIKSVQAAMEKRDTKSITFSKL
UniProt O35226: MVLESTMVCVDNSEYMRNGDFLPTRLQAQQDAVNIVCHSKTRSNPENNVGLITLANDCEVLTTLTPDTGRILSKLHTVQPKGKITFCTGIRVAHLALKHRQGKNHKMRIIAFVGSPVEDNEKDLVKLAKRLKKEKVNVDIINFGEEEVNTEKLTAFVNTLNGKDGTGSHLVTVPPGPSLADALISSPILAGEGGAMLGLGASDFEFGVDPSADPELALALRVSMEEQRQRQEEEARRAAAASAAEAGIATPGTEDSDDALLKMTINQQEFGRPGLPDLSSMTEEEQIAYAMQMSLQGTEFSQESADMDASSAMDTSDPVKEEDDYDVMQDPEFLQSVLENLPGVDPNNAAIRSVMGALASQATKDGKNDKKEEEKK
UniProt E9Q6D6: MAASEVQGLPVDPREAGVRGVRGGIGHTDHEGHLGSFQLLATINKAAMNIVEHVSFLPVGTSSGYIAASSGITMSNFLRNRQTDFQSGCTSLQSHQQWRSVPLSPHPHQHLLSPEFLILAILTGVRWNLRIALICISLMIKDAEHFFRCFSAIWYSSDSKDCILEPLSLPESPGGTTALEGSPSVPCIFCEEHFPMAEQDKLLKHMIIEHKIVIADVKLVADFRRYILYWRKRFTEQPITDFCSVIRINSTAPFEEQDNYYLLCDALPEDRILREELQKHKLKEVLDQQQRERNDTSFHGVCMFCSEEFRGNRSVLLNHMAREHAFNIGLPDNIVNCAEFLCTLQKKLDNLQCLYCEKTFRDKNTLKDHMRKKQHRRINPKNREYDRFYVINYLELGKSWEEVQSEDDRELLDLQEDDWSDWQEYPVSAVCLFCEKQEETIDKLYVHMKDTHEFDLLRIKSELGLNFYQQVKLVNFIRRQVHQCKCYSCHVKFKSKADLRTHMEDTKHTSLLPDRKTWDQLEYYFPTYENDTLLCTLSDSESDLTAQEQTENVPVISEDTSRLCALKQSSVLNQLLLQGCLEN
UniProt O35385: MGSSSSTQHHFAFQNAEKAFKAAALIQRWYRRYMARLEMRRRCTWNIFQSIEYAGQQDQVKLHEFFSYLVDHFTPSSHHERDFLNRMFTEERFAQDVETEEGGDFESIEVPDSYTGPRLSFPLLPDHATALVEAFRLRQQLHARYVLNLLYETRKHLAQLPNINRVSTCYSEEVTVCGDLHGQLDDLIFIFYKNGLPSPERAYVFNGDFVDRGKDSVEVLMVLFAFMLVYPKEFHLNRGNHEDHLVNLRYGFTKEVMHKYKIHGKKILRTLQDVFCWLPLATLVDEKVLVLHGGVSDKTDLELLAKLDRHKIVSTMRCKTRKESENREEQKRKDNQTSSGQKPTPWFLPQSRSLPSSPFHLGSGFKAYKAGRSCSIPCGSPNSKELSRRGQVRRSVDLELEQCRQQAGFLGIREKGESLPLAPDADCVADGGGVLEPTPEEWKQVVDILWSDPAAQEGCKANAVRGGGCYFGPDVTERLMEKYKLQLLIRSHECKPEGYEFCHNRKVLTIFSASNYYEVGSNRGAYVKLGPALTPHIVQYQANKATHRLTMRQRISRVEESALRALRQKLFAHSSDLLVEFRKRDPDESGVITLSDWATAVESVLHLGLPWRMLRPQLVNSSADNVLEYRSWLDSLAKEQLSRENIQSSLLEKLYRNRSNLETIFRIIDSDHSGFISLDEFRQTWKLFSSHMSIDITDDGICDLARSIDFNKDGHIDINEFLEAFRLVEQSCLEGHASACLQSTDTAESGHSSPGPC

Target | log2 fold change
UniProt O09039 (peptide sequence: ESLAGPPGHDYR, peptide start residue: 77) | -0.535
UniProt E9Q286 (peptide sequence: SSGSADSTSWHR, peptide start residue: 753) | -0.449
UniProt O35386 (peptide sequence: YGFQGVMDFK, peptide start residue: 312) | 2.66
UniProt O09111 (peptide sequence: AVIAPSGVEK, peptide start residue: 34) | -0.0645
UniProt O35375 (peptide sequence: STWISSANPNDR, peptide start residue: 667) | -0.183
UniProt E9Q1U1 (peptide sequence: SELHTACLR, peptide start residue: 1238) | -0.297
UniProt O35426 (peptide sequence: VLLLSGQPASGGR, peptide start residue: 17) | -0.353
UniProt D0QMC3 (peptide sequence: VEMPDYHV, peptide start residue: 531) | 0.209
UniProt E9Q4P1 (peptide sequence: VCDSCYDSIKDEDR, peptide start residue: 343) | -0.152
UniProt C0HKD8 (peptide sequence: ELEQEAKR, peptide start residue: 224) | -0.4
UniProt O08807 (peptide sequence: QITLNDLPVGR, peptide start residue: 216) | -0.64
UniProt E1U8D0 (peptide sequence: LQIGELSGK, peptide start residue: 338) | -0.322
UniProt O09000 (peptide sequence: KLPCDAPGQGLVYSGEK, peptide start residue: 20) | -0.269
UniProt O08677 (peptide sequence: ERFPSLHGDCVALPNGDDGECR, peptide start residue: 208) | -0.695
UniProt O35423 (peptide sequence: EALQHCPKNKL, peptide start residue: 404) | -0.48
UniProt O09159 (peptide sequence: VAWHIDPFGHSR, peptide start residue: 191) | -0.263
UniProt D3Z6S9 (peptide sequence: AKEKALQK, peptide start residue: 389) | 0.0529
UniProt B8ZXI1 (peptide sequence: IKGLDQAK, peptide start residue: 310) | -0.173

For convenience, part of the list above.
Target | log2 fold change
UniProt O35375 (peptide sequence: STWISSANPNDR, peptide start residue: 667) | -0.183
UniProt E9Q1U1 (peptide sequence: SELHTACLR, peptide start residue: 1238) | -0.297

(cont.)

Target | log2 fold change
UniProt O35343 (peptide sequence: KLLSSDRNPPIDDLIK, peptide start residue: 97) | 0.278
UniProt B7ZMP1 (peptide sequence: ELWDGPR, peptide start residue: 161) | -0.206
UniProt O08585 (peptide sequence: WREEQTERLEALDANSR, peptide start residue: 112) | -0.186
UniProt E9Q0S6 (peptide sequence: FYEDKIVPIGQPSQRR, peptide start residue: 320) | 0.867
UniProt B2RX14 (peptide sequence: NILPITTAKVPIVK, peptide start residue: 1091) | 0.255
UniProt O09117 (peptide sequence: GKTEIQVNCPK, peptide start residue: 56) | -0.509
UniProt O09167 (peptide sequence: RVKENDQK, peptide start residue: 108) | -0.634
UniProt B8JKV0 (peptide sequence: SCDISDVALQHLCK, peptide start residue: 70) | 0.577
UniProt O09005 (peptide sequence: VSREEFEWVYTDQPHAAR, peptide start residue: 5) | 0.413
UniProt O35459 (peptide sequence: KMMADEALDSGLVSR, peptide start residue: 230) | -0.523
UniProt B9EJ57 (peptide sequence: ISASQIIENPR, peptide start residue: 322) | 0.179
UniProt O35226 (peptide sequence: NGDFLPTR, peptide start residue: 18) | -0.12
UniProt E9Q6D6 (peptide sequence: SVLLNHMAR, peptide start residue: 314) | 0.232
UniProt E9Q6B2 (peptide sequence: RLQQHLLEIR, peptide start residue: 63) | 0.231
UniProt O35316 (peptide sequence: EGATPFHSR, peptide start residue: 593) | -0.204
UniProt O35464 (peptide sequence: DVAVVQRK, peptide start residue: 680) | -0.0317
UniProt O35385 (peptide sequence: VLVLHGGVSDK, peptide start residue: 288) | 0.237

Source: the supplement of paper PMC12819154, “High-throughput peptide-centric local stability assay extends protein–ligand identification to membrane proteins, tissues and bacteria” (Nature Structural & Molecular Biology, 2025)
